{"source": "PubChem BioAssay AID720612", "about": "(Broad Institute, 2013)", "assay": "HUVEC endothelial cell viability, late-stage follow-up, cytotoxicity control for HRAS target identification, Alamar Blue fluorescence, 8-48 h, dry powder (AID 720612)", "details": "24 h; at 35 µM (top of the series)", "note": "All entries are inconclusive by the source's own rule. Clear calls are listed elsewhere.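 How the source made its calls: active means compounds whose fitted half-maximal viability loss lies within twice the top dose at every treatment time; inconclusive means the three treatment times give differing calls; inactive means inactive at every treatment time.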"}
{"smiles": "Cc1onc(C(=O)N2CCN(C(c3ccc(Cl)cc3)c3ccc(Cl)cc3)CC2)c1[N+](=O)[O-]", "values": [{"measurement": "activity change, negative = cytotoxicity", "value": "inconclusive: 1.76%"}]}
